# Results are given in words; binding and its absence hold for the method and conditions named. Binding seen in cells or lysates may run through a third protein. Binding can be weak; no strength is given.
# By UniProt entry, the sequences of proteins in these tests, tags left out. Where a name states a change or a piece, a line headed by the entry shows the natural chain unless it says otherwise.
# UniProt O95180: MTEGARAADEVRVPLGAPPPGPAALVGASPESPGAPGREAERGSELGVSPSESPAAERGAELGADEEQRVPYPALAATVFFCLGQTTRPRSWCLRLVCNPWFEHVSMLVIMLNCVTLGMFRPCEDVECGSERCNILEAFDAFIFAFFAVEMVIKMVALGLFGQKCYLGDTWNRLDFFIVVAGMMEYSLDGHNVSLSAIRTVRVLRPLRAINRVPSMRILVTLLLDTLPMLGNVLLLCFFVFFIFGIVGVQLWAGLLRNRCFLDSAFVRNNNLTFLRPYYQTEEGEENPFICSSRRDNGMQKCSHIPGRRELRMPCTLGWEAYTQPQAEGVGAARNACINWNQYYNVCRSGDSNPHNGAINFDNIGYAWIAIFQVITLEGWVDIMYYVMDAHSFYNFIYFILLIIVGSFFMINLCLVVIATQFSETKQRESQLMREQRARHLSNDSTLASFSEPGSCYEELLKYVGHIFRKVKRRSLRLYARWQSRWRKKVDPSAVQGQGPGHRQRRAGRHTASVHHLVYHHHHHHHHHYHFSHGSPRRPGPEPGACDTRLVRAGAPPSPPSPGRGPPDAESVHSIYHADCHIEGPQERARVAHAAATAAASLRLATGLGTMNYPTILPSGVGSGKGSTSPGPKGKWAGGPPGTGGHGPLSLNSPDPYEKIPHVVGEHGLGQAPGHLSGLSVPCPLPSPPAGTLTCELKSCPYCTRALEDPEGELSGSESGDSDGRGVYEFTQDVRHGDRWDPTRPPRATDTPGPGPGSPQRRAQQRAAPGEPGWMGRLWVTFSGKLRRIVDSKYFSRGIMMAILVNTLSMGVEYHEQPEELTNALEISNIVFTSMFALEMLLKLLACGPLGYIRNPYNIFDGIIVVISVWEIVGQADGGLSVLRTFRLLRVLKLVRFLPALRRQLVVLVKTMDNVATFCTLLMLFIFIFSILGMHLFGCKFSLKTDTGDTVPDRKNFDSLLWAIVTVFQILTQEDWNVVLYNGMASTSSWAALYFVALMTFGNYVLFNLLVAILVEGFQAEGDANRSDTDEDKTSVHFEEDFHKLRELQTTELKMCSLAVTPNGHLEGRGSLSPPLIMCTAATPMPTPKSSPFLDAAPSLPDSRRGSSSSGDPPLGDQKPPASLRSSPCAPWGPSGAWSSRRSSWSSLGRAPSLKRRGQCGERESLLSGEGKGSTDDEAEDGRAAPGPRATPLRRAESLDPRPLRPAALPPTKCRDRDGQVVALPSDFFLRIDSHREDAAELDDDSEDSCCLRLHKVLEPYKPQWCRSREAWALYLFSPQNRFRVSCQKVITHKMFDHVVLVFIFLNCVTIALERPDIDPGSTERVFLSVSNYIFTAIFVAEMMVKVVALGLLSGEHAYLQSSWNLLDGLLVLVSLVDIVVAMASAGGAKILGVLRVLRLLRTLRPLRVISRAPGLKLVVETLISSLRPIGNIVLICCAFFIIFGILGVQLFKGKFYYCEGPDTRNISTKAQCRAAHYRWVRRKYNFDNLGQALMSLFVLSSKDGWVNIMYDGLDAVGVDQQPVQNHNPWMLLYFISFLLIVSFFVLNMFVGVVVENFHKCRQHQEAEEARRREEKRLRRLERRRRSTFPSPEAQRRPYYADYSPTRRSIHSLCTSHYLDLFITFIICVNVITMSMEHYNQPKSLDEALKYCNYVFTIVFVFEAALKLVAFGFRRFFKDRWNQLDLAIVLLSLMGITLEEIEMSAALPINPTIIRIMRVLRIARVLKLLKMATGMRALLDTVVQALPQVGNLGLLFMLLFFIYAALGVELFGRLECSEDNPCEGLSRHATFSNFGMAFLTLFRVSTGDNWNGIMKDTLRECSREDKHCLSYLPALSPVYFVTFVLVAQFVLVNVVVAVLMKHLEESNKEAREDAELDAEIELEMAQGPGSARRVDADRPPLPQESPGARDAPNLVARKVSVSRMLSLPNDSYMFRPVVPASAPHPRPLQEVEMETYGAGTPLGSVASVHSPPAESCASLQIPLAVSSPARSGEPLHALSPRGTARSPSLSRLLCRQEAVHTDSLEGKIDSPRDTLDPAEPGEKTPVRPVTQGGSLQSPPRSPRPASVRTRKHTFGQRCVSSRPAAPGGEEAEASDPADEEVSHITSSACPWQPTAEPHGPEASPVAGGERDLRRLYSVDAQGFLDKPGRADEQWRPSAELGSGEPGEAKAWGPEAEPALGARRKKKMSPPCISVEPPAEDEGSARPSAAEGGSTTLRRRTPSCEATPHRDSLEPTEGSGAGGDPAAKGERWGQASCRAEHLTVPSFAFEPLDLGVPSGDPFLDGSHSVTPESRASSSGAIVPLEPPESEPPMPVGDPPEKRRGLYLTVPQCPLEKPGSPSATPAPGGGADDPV
# UniProt P35564: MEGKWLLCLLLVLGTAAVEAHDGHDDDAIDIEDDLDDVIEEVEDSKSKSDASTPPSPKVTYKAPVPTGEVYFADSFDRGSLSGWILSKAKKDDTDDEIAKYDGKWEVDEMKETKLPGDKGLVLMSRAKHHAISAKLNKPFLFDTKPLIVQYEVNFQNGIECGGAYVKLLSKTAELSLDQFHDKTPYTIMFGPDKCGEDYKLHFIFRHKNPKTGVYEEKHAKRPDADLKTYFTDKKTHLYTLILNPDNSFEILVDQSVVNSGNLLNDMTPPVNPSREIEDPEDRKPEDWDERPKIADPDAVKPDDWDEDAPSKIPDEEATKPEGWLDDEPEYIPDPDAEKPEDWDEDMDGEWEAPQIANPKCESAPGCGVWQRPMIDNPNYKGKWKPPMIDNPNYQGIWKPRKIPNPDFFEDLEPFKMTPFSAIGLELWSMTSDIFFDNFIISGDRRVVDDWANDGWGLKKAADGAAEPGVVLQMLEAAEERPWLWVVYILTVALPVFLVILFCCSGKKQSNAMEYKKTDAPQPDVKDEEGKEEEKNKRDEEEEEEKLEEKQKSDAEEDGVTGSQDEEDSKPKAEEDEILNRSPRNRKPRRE
# What was measured:
# [1] = target: HA-tagged human Cav3.2 channel (human) (UniProt O95180); assay: co-IP; tsA-201 cells 72 h after transfection, NP40 lysis buffer (50 mM Tris, 150 mM NaCl, 1% NP40, pH 8.0); precipitated with anti-HA (hCav3.2-HA), blotted with anti-CNX or anti-mCherry
# [2] = target: mCherry-tagged calnexin lacking the cytosolic domain (CNX^AC) (mouse) (UniProt P35564); assay: co-IP; tsA-201 cells 72 h after transfection, NP40 lysis buffer; precipitated with anti-mCherry (CNX-mCherry constructs), blotted with anti-HA
# [3] = target: mCherry-tagged calnexin lacking the luminal domain (CNX^BD) (mouse) (UniProt P35564); assay: as above
Substance,binding [1],binding [2],binding [3]
mCherry-tagged calnexin lacking the luminal domain (CNX^BD) (from UniProt P35564) (domain or fragment),binds,–,–
mCherry-tagged calnexin lacking the cytosolic domain (CNX^AC) (from UniProt P35564) (domain or fragment),binds,–,–
HA-tagged human Cav3.2 channel (from UniProt O95180 1-2353),–,binds,binds

# Reference: paper PMC5599688
